Laboratory results: patent publication US20020099177A1 (Human Genome Sciences, published 2002)
These are yes or no findings as the source states them, for the method shown. In cells and extracts the contact can be indirect. Some entries that bind do so weakly or less than the wild type. Tags and fused reporters may be left off the sequences shown.

Protein sequences, listed by entry. Tags and fused reporters are not part of them.
UniProt Q99836: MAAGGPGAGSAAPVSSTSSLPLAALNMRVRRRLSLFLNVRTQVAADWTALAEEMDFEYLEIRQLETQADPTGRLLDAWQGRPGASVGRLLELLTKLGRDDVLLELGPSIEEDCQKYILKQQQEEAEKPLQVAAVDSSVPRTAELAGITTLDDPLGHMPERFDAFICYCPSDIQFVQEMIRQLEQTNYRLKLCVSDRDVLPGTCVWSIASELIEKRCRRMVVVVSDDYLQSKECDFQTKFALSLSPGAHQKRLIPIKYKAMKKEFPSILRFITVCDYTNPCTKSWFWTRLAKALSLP

T1: IRAK-2 (IRAK-2α; IRAK-2-MyC expression construct) (human) (UniProt O43187)
T1 sequence: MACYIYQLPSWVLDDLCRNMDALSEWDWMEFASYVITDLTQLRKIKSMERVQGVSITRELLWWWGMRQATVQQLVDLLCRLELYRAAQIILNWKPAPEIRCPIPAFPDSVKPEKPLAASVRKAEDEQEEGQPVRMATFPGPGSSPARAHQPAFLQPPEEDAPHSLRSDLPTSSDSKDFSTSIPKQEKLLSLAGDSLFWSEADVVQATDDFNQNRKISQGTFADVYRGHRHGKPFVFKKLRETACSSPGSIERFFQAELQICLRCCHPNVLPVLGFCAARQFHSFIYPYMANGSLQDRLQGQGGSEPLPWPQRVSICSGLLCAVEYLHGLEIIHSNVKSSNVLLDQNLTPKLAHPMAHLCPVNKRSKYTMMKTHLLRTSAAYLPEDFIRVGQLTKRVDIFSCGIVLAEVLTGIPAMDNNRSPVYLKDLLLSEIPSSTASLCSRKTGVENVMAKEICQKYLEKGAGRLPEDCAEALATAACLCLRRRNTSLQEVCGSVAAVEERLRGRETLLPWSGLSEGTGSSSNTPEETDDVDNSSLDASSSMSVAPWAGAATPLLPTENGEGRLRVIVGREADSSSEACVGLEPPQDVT

T2: IL-1 receptor type I (Flag-IL-1RI) (human, UniProt P14778 18-569)
T2 construct: not shown: Flag tag from pCMV-1-Flag expression vector
T2 sequence (looked up): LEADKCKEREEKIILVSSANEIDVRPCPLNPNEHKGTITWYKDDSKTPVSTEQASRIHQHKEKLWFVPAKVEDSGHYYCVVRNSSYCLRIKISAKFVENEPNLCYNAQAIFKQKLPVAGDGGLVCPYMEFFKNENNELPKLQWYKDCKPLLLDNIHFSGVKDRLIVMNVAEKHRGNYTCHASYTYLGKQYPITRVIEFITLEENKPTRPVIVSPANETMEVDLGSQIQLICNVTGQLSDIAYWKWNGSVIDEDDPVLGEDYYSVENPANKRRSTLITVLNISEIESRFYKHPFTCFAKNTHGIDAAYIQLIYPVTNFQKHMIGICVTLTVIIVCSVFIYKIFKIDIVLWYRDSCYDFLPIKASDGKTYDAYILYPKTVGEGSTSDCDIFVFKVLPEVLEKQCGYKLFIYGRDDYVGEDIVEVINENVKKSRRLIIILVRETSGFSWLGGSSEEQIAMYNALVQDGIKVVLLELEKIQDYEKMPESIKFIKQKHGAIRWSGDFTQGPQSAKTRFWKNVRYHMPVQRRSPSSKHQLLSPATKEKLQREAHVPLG


Legend:
[1] = target: T1, IRAK-2 (IRAK-2α; IRAK-2-MyC expression construct) (human); experiment: coimmunoprecipitation from transfected cell lysates
[2] = target: T1, IRAK-2 (IRAK-2α; IRAK-2-MyC expression construct) (human); experiment: coimmunoprecipitation, coexpressed in 293T cells
[3] = target: T2, IL-1 receptor type I (Flag-IL-1RI); experiment: coimmunoprecipitation from transfected 293/293T cell lysates
Method: The total amount of DNA was kept constant. 24-36 hours after transfection, cells were lysed in 0.5 ml buffer (1% NP40, 150 mM NaCl, 50 mM Tris, 1 mM EDTA and protease inhibitors cocktail). Cell lysates were adjusted to 0.7 M NaCl and the indicated antibodies were added for 1 to 4 hours. Immune complexes were precipitated by the addition of protein-G-Sepharose (Sigma). After extensive washing, the Sepharose heads were boiled in sample buffer and the eluted proteins fractionated by SDS-PAGE. Subsequent protein immunoblotting was performed as described (Chinnaiyan, A., et al., Cell 81:505-12 (1995)).

binding [3] | Molecule | also measured
– | MyD88 (AU1-MyD88) (from UniProt Q99836 1-296) | binding [1]: binds
– | TRAF6 (298-522), dominant negative version of TRAF6 (protein, UniProt Q9Y4K3 289-522, looked up, not shown: small tags and cut ends) ISEVRNFQETIHQLEGRLVRQDHQIRELTAKMETQSMYVSELKRTIRTLEDKVAEIEAQQCNGIYIWKIGNFGMHLKCQEEEKPVVIHSPGFYTGKPGYKLCMRLHLQLPTAQRCANYISLFVHTMQGEYDSHLPWPFQGTIRLTILDQSEAPVRQNHEEIMDAKPELLAFQRPTIPRNPKGFGYVTFMHLEALRQRTFIKDDTLLVRCEVSTRFDMGSLRREGFQPRSTDAGV | binding [2]: binds
binds | IRAK-2 (IRAK-2α; IRAK-2-MyC expression construct) (enzyme, not shown: small tags and cut ends) MACYIYQLPSWVLDDLCRNMDALSEWDWMEFASYVITDLTQLRKIKSMERVQGVSITRELLWWWGMRQATVQQLVDLLCRLELYRAAQIILNWKPAPEIRCPIPAFPDSVKPEKPLAASVRKAEDEQEEGQPVRMATFPGPGSSPARAHQPAFLQPPEEDAPHSLRSDLPTSSDSKDFSTSIPKQEKLLSLAGDSLFWSEADVVQATDDFNQNRKISQGTFADVYRGHRHGKPFVFKKLRETACSSPGSIERFFQAELQICLRCCHPNVLPVLGFCAARQFHSFIYPYMANGSLQDRLQGQGGSEPLPWPQRVSICSGLLCAVEYLHGLEIIHSNVKSSNVLLDQNLTPKLAHPMAHLCPVNKRSKYTMMKTHLLRTSAAYLPEDFIRVGQLTKRVDIFSCGIVLAEVLTGIPAMDNNRSPVYLKDLLLSEIPSSTASLCSRKTGVENVMAKEICQKYLEKGAGRLPEDCAEALATAACLCLRRRNTSLQEVCGSVAAVEERLRGRETLLPWSGLSEGTGSSSNTPEETDDVDNSSLDASSSMSVAPWAGAATPLLPTENGEGRLRVIVGREADSSSEACVGLEPPQDVT | –
binds | IRAK-2 (1-96) (protein, not shown: small tags and cut ends) MACYIYQLPSWVLDDLCRNMDALSEWDWMEFASYVITDLTQLRKIKSMERVQGVSITRELLWWWGMRQATVQQLVDLLCRLELYRAAQIILNWKPA | –
